Assay results reported in publication PMC7825749.
These are yes or no findings as the source states them, for the method shown. In cells and extracts the contact can be indirect. Some entries that bind do so weakly or less than the wild type.

Sequences of proteins named here, by UniProt entry; tags and fusion partners are left off.
UniProt Q13887: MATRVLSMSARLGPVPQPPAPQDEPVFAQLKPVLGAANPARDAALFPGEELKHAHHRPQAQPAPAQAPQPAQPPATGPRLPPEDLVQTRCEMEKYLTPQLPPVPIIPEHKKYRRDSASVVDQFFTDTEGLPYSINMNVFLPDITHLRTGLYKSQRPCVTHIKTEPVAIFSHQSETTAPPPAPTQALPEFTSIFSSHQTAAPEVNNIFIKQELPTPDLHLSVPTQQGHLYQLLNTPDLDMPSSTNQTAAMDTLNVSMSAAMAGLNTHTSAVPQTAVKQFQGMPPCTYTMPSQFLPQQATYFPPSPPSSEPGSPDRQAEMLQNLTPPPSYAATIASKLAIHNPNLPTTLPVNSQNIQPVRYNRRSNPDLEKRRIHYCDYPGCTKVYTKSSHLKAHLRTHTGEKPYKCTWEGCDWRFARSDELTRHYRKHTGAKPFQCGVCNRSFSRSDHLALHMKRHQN
UniProt Q16665: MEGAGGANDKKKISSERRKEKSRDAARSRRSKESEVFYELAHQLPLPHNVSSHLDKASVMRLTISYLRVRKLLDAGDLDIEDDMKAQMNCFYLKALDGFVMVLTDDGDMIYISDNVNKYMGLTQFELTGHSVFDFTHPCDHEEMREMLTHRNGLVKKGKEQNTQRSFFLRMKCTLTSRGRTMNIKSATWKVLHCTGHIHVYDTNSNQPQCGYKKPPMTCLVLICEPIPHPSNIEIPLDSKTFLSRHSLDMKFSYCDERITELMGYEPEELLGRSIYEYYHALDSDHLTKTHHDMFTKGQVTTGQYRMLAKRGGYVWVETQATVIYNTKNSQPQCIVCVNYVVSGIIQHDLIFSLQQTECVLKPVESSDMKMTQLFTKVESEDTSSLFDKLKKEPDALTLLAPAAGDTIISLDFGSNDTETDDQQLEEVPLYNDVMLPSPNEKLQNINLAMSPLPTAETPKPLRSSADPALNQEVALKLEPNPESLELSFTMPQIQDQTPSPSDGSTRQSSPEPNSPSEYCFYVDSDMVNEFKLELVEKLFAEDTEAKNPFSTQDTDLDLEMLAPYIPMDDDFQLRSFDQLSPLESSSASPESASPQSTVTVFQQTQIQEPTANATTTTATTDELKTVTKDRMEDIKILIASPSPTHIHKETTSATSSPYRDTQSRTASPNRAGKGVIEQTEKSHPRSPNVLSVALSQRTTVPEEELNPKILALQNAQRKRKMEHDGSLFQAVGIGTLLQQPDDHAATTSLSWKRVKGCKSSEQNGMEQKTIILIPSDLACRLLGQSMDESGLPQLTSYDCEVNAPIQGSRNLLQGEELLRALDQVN

Key:
[1] = molecular target: Krüppel-like factor 5 (KLF5) (human (endogenous in BCPAP and TPC-1)) (UniProt Q13887); assay: co-IP; lysates of BCPAP and TPC-1 PTC cells immunoprecipitated with KLF5 antibody or IgG, immunoblot for HIF-1α; also after treatment of the cells with ML264 at indicated doses for 6 h (binding markedly decreased)
[2] = molecular target: HIF-1α (human (endogenous in BCPAP and TPC-1)) (UniProt Q16665); assay: co-IP; lysates of BCPAP and TPC-1 PTC cells immunoprecipitated with HIF-1α antibody or IgG, immunoblot for KLF5

| binding [1] | binding [2] | Substance |
| --- | --- | --- |
| binds | – | HIF-1α (from UniProt Q16665 1-826) |
| – | binds | Krüppel-like factor 5 (KLF5) (from UniProt Q13887 1-457) |
